Laboratory results: PubChem BioAssay AID652272 (Drosophila RNAi Screening Center, 2013)

Screen: 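Finding fly genes that regulate Hedgehog signal transduction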 (primary screen)
Cells: Drosophila clone 8 (Cl8) cells
Reagent: long dsRNA against Drosophila genes
Measured: 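Plate reader light from a firefly reporter under a ptc promoter fragment that responds to Hedgehog, with Renilla light as transfection reference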
Reading the numbers: firefly Hh reporter signal: higher = more ptc reporter light; Renilla reference signal: higher = more Renilla control light
Active means: 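Hit when the z-score averaged over two replicates is under -2 or over +3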
Meaning of the calls: active = hit: reporter lowered or raised; inactive = not a hit
In all, the deposit lists about 21,000 reagents; below is an unselected part of those with a known target gene and a result. Over the whole deposit, 503 (2.4%) were called active. 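Raw plate light values, not normalised; calls rest on replicate z-scores that were not deposited; hits include reporter decreases as well as increases.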 A plus sign joins genes that one reagent is predicted to hit. Not given: the amount of reagent, the time to read-out.

| target gene | PubChem SID | firefly Hh reporter signal, replicate 1 | firefly Hh reporter signal, replicate 2 | firefly Hh reporter signal, replicate 3 | Renilla reference signal, replicate 1 | Renilla reference signal, replicate 2 | outcome |
| --- | --- | --- | --- | --- | --- | --- | --- |
| CG34337 | SID104198227 | 1.04e5 | 2.61e5 | – | 3280 | 8770 | inactive |
| hang (hangover) | SID104199693 | 63129 | 35412 | – | 1330 | 786 | inactive |
| hang (hangover) | SID104199694 | 43377 | 1.33e5 | – | 1377 | 5750 | inactive |
| CG3511 | SID104184174 | 74384 | 57312 | – | 4054 | 2917 | inactive |
| mus304 (mutagen-sensitive 304) | SID104191164 | 1.15e5 | – | – | 1480 | 5383 | inactive |
| CG17147 | SID104190041 | 1.09e5 | 1.63e5 | – | 3767 | 4939 | inactive |
| Hsp26 (Heat shock protein 26) | SID104190981 | 1.45e5 | 65341 | – | 5296 | 2601 | inactive |
| CG3793 | SID104181774 | 78640 | 69898 | – | 4169 | 3415 | inactive |
| Mettl2 (Methyltransferase like 2) | SID104188190 | 1.31e5 | 76145 | – | 5417 | 3378 | inactive |
| gsb-n (gooseberry-neuro) | SID104183813 | 1.96e5 | 2.68e5 | – | 4213 | 11831 | inactive |
| gsb-n (gooseberry-neuro) | SID104184485 | 76883 | 78763 | – | 1762 | 5926 | inactive |
| CtsK2 (Cathepsin K2) | SID104186689 | 75056 | 53078 | – | 3828 | 2483 | inactive |
| Hacd2 (3-hydroxyacyl-CoA dehydratase 2) | SID104182973 | 1.06e5 | 60087 | – | 2608 | 4357 | inactive |
| CG43317 | SID104194792 | 59337 | 78041 | – | 1074 | 2165 | inactive |
| SIFa (SIFamide) | SID104184272 | 85339 | 1.03e5 | – | 1892 | 6516 | inactive |
| Txl (Thioredoxin-like) | SID104191102 | 39420 | 46794 | – | 5308 | 3197 | inactive |
| bsk (basket) | SID104183291 | 1.05e5 | 67712 | – | 4730 | 3028 | inactive |
| dup (double parked) | SID104186880 | 37706 | 33111 | – | 1095 | 2392 | inactive |
| bond (james bond) | SID104195927 | 92235 | 1.42e5 | – | 3803 | 5339 | inactive |
| FipoQ (F-box involved in polyQ pathogenesis) | SID104195205 | 64325 | 47552 | – | 2027 | 1841 | inactive |
| Eglp1 (Entomoglyceroporin 1) | SID104184294 | 1.29e5 | 83464 | – | 4896 | 3368 | inactive |
| Shal (Shaker cognate l) | SID104189417 | 2.61e5 | – | – | 5408 | – | inactive |
| Shal (Shaker cognate l) | SID104191075 | 1.49e5 | 1.55e5 | – | 5456 | 4732 | inactive |
| CG13226 | SID104186138 | 77193 | 48908 | – | 2144 | 3344 | inactive |
| prd (paired) | SID104183389 | 96537 | 60129 | – | 4199 | 3431 | inactive |
| Ttc30 (Tetratricopeptide repeat domain 30) | SID104182610 | 1.96e5 | 80163 | – | 5137 | 7751 | inactive |
| ocn (ocnus) | SID104196812 | 1.04e5 | 1.26e5 | – | 4123 | 4233 | inactive |
| CG1368 | SID104199329 | 96016 | 91884 | – | 1989 | 2112 | inactive |
| Alp11 (Alkaline phosphatase 11) | SID104199872 | 55497 | 1.93e5 | – | 2032 | 8602 | inactive |
| CRMP (Collapsin Response Mediator Protein) | SID104191865 | 1.45e5 | – | – | 4224 | – | inactive |
| CRMP (Collapsin Response Mediator Protein) | SID104192137 | 1.26e5 | 80331 | – | 4101 | 2957 | inactive |
| U2af38 (U2 small nuclear riboprotein auxiliary factor 38) | SID104180588 | 1.10e5 | 68533 | – | 3494 | 2088 | inactive |
| mGluR (metabotropic Glutamate Receptor) | SID104197007 | 61062 | 1.67e5 | – | 1830 | 6871 | inactive |

Limited to “Renilla reference signal, replicate 2” (6 entries from above):
hang (hangover) [SID104199694] = 5750
CG3511 [SID104184174] = 2917
mus304 (mutagen-sensitive 304) [SID104191164] = 5383
CG17147 [SID104190041] = 4939
Hsp26 (Heat shock protein 26) [SID104190981] = 2601
CG3793 [SID104181774] = 3415

More reagents follow.
| target gene | PubChem SID | firefly Hh reporter signal, replicate 1 | firefly Hh reporter signal, replicate 2 | firefly Hh reporter signal, replicate 3 | Renilla reference signal, replicate 1 | Renilla reference signal, replicate 2 | outcome |
| --- | --- | --- | --- | --- | --- | --- | --- |
| sra (sarah) | SID104196807 | 1.39e5 | 65312 | – | 5605 | 2546 | inactive |
| atms (antimeros) | SID104192102 | 1.92e5 | 1.53e5 | – | 4284 | 2713 | inactive |
| Dcps (Decapping enzyme, scavenger) | SID104192091 | 1.37e5 | 1.18e5 | – | 5457 | 4662 | inactive |
| Trf2 (TATA box binding protein-related factor 2) | SID104198519 | 72429 | 1.60e5 | – | 2669 | 5922 | inactive |
| CG31999 | SID104196923 | 78571 | 2.10e5 | – | 2086 | 7619 | inactive |
| CG31999 | SID104196925 | 73558 | 1.63e5 | – | 2168 | 6865 | inactive |
| CG5846 | SID104182696 | 86016 | 45833 | – | 3396 | 1931 | inactive |
| CalpB (Calpain-B) | SID104190901 | 1.14e5 | 42554 | – | 4614 | 1208 | inactive |
| SelR (Selenoprotein R) | SID104195863 | 75728 | 1.25e5 | – | 2640 | 3579 | inactive |
| mRpS7 (mitochondrial ribosomal protein S7) | SID104182606 | 95365 | 94976 | – | 2969 | 3200 | inactive |
| CG4630 | SID104186666 | 1.08e5 | 1.14e5 | – | 4300 | 3952 | inactive |
| NaPi-T (Na[+]-dependent inorganic phosphate cotransporter) | SID104187268 | 1.03e5 | 61990 | – | 2480 | 4523 | inactive |
| Takl1 (Tak1-like 1) | SID104193235 | 43648 | 1.92e5 | – | 9473 | 4316 | inactive |
| rho-4 (rhomboid-4) | SID104199553 | 1.49e5 | 1.11e5 | – | 3213 | 2827 | inactive |
| rho-4 (rhomboid-4) | SID104199554 | 82432 | 2.72e5 | – | 2780 | 10965 | inactive |
| CG42471 | SID104181002 | 5.96e5 | 2.70e5 | – | 30296 | 10656 | inactive |
| HLH54F | SID104187230 | 82077 | 51188 | – | 2666 | 3526 | inactive |
| RFeSP (Rieske iron-sulfur protein) | SID104180494 | 1.59e5 | 1.03e5 | – | 3177 | 2370 | inactive |
| opm (opossum) | SID104199933 | 1.65e5 | 1.21e5 | – | 4045 | 3021 | inactive |
| CG2698 | SID104195239 | 72577 | 1.60e5 | – | 2900 | 4472 | inactive |
| CG42588 | SID104189612 | 35428 | 52707 | 61496 | 7712 | 5498 | inactive |
| fw (furrowed) | SID104200126 | 72763 | 1.86e5 | – | 1585 | 6795 | inactive |
| CG13743 | SID104184931 | 8.17e5 | 2.02e5 | 1.81e5 | 7541 | 5436 | inactive |
| CG13743 | SID104186206 | 72768 | 26012 | – | 1537 | 1832 | inactive |
| Nlg4 (Neuroligin 4) | SID104194900 | 6.60e5 | 1.20e5 | – | 35868 | 3508 | inactive |
| Nlg4 (Neuroligin 4) | SID104194901 | 4.89e5 | 79305 | – | 26273 | 2093 | inactive |
| Nlg4 (Neuroligin 4) | SID104195492 | 4.79e5 | 71962 | – | 28122 | 2144 | inactive |
| Nlg4 (Neuroligin 4) | SID104195493 | 2.22e5 | 19339 | – | 17522 | 957 | active |
| CG14561 | SID104191514 | 1.00e5 | 1.08e5 | – | 3771 | 3073 | inactive |
| ODA-Dnal1 (Outer dynein arm dynein axonemal light chain 1) | SID104187062 | 1.79e5 | 64628 | – | 4097 | 5241 | inactive |
| CG17544 | SID104182416 | 53712 | 34018 | – | 2576 | 1443 | inactive |
| CG6296 | SID104195805 | 66609 | 96972 | – | 1675 | 2924 | inactive |
| CG6961 + CG18259 | SID104199591 | 59193 | 1.86e5 | – | 986 | 8675 | inactive |
| CG6961 + CG18259 | SID104199811 | 94423 | 91779 | – | 2261 | 2357 | inactive |
| CG13220 | SID104186134 | 84198 | 44240 | – | 2043 | 3626 | inactive |
| CG15210 | SID104199448 | 92359 | 2.85e5 | – | 3128 | 10330 | inactive |
| Sgs8 (Salivary gland secretion 8) | SID104191074 | 47683 | 44433 | 53692 | 3776 | 3497 | inactive |
| Dlip1 (Dorsal interacting protein 1) | SID104198252 | 1.25e5 | 2.58e5 | – | 4006 | 9056 | inactive |
| CG43774 + CG43773 | SID104180079 | 1.31e5 | 69232 | – | 2690 | 4327 | inactive |
| CG43774 + CG43773 | SID104180080 | 1.20e5 | 62035 | – | 3328 | 5511 | inactive |
